AC50 data for 18 compounds are collected here from PubChem BioAssay AID493014 (National Center for Advancing Translational Sciences (NCATS), 2011).

The structures appear in SMILES notation. The list shows a part of the results. These are further read-outs of the screen, such as a control signal, another cell line or another target. No call is given for them. Compounds called inactive in the main read-out are mostly missing here. The note in brackets gives the kind of curve behind each potency; many fits are weak.

A short description of this test: qHTS Assay to Find Inhibitors of Chronic Active B-Cell Receptor Signaling. To be noted: ABC-DLBCL IkBa-CBG/CBR reporter, luminescence ratio (green luciferase fused to IkBa over red control in TMD8 lymphoma cells), 4 h. In a few lines:
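Concentration-response series (up to 46 uM) were applied to TMD8 dual-reporter cells for 4 h at 37C with doxycycline. Green/red ratio, after filter-overlap correction, defined %Activity; red signal alone was normalised to basal cells and zero luminescence.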
(In general: Quantitative high-throughput screening tests each substance at several concentrations.)

Where [1] appears, read: measured here: CBR red luminescence, cell number.

As for `CC(C)(C)c1ccc(C(=O)c2c[nH]c(C(=O)O)c2)cc1`, under setting [1], the AC50 is 15.8 µM [falling, single point].

Regarding `COc1cc(OC)c(N(C)S(=O)(=O)c2cccc(C(=O)NC3=NCCS3)c2)cc1Cl`, under setting [1], the AC50 was 35.5 µM [falling, single point].

Take `COc1cccc(C(=O)Nc2ccc(N(C)C)cc2)c1OC`: the AC50 under setting [1] was 0.58 µM [falling, partial curve, poor fit].

For `CCOc1ncccc1C(=O)OCC(=O)Nc1c(C)cccc1C`, under setting [1], the AC50 was 11.6 µM [rising, partial curve].

Take `O=C(Nc1nc(-c2ccccc2)ns1)c1ccc(Cl)cc1`: under setting [1], the AC50 is 2.51 µM [falling, full curve].

Consider `O=C(Nc1ccc(Oc2cccnc2)cc1)c1cccc([N+](=O)[O-])c1`, for which the AC50 under setting [1] was 0.731 µM [rising, full curve].

For `COc1ccc(C)cc1Nc1n[n+](C)c(-c2c3ccccc3cc3ccccc23)s1`, the AC50 under setting [1] is 12.6 µM [falling, single point].

In the case of `COc1ccc(CNC(=O)C2CC(=O)N(c3ccc(OCC(=O)N4CCCCC4)cc3)C2)cc1` (stereo not drawn), the AC50 under setting [1] was 20.6 µM [rising, single point].

Take `O=C(CCN1C(=O)C2CCCCC2C1=O)Nc1nc2c(F)cc(F)cc2s1` (stereo not drawn): the AC50 under setting [1] was 4.11 µM [falling, partial curve, poor fit].

For the compound `O=C(Nc1ccc(Cl)cc1Cl)N1CCN(c2ncccn2)CC1`, under setting [1], the AC50 was 1.78 µM [rising, partial curve, poor fit].

For the compound `Cc1cc(NC(=O)c2ccc3nccnc3c2)ccc1Br`, the AC50 under setting [1] is 3.66 µM [falling, single point].

As for `O=C(NCC1CCCO1)c1cccc(NS(=O)(=O)c2ccccc2)c1` (stereo not drawn), the AC50 under setting [1] is 18.4 µM [rising, single point].

In the case of `CC1CC(C)CN(C(=O)CSCC(=O)O)C1` (stereo not drawn), the AC50 under setting [1] was 0.631 µM [rising, full curve, poor fit].

As to `O=C(Cn1c(-c2ccccc2)noc1=O)N1CCC(Cc2ccccc2)CC1`, the AC50 under setting [1] was 5.62 µM [falling, single point].

Regarding `CCOC(=O)Cc1nc2ccccc2[nH]1`, the AC50 (measured here: IkBa-CBG green luminescence) is 3.26 µM [rising, partial curve, poor fit].

Turning to `CCOC(=O)c1cc(-c2ccccc2)n(CCC(=O)NCCc2ccc(C)cc2)c1C`, the AC50 under setting [1] was 4.47 µM [rising, partial curve, poor fit].

For `C/C(=N\NC(=O)c1ccco1)c1ccc(NC(=O)c2cccs2)cc1`, the AC50 under setting [1] was 23.1 µM [falling, single point].

Consider `Cc1noc(C)c1NC(=O)Nc1ccc2c(c1)CC(=O)N([C@@H](C)CO)C[C@@H](C)[C@@H](CN(C)C(=O)Nc1cccc3ccccc13)O2`, for which the AC50 under setting [1] is 10.3 µM [rising, partial curve, poor fit].

For orientation: AC50 means the concentration giving half of the maximal activity seen.
